Results published in PubChem BioAssay AID445 (National Center for Advancing Translational Sciences (NCATS), 2006).
“And” between values parts separate entries of the source, which are not always exact repeats. Equal entries are not always repeated. This is one part of the list. Shown are side measurements of this screen, not its main read-out; they come without a call. Most of these compounds were active or inconclusive in the main read-out, so they are no random draw. Potencies come from curve fits of mixed quality, noted in brackets.

Test: IkB Signaling
Conditions: ABC-DLBCL IkBa-CBG/CBR dual luciferase ratio (green luciferase fused to IkBa over red control in OCI-Ly3 lymphoma cells), 4 h
Procedure, shortened: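 In this assay, an IκBα–CBG68 fusion accumulates when IKK-driven degradation is blocked; native CBR normalizes for cell number. OCI-Ly3 cells were treated 4 h with compound and doxycycline, then green and red light read after Chroma-Glo addition.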

[1] = measured here: control luc red channel
[2] = measured here: IkB-luc green channel

Row | SMILES | AC50 [1] | AC50 [2]
1 | O=C(Nc1ccon1)c1cccn(Cc2cccc(Cl)c2)c1=O | 12.6 µM [falling, partial curve, poor fit] | –
2 | Cc1oc(-c2ccc(Cl)cc2)nc1CN1C(=O)CN=C(c2ccccc2)c2ccccc21 | 20 µM [falling, single point] | –
3 | Cc1cccc(NC(=O)Cn2cc(C(=O)c3ccccc3)c3ccccc32)c1C | 3.98 µM [falling, full curve] | –
4 | O=c1[nH]c2ccccc2c(=O)n1-c1ccc(Cl)c(Cl)c1 | 1.58 µM [falling, full curve] | –
5 | Nc1ccccc1C(=O)OCCc1ccccc1 | 12.6 µM [falling, partial curve] | 7.94 µM [rising, partial curve]
6 | CN(C)c1ccc(N)cc1 | 2.51 µM [falling, full curve] | –
7 | O=C1C(Cl)=C(Cl)C(=O)C(Cl)=C1Cl | 3.98 µM [falling, full curve] | –
8 | CCCCCC[C@H]1C(=O)O[C@H](C)[C@H](NC(=O)c2cccc(NC=O)c2O)C(=O)O[C@@H](C)[C@H]1OC(=O)CC(C)C | 5.01 µM [falling, partial curve] | –
9 | O=C1C2CCN(CC2)C1(CO)CO | 31.6 µM [falling, partial curve] | –
10 | C[C@]12Cc3cn4c(nc3C=C1CC[C@H]1[C@@H]2CC[C@@]2(C)[C@H]1CC[C@@]2(O)C#N)nc1ccccc14 | 15.8 µM [falling, full curve, poor fit] | 31.6 µM [falling, partial curve, poor fit]
11 | COc1ccc(CN2CCN(C(=O)COc3cccc(C)c3)CC2)c(OC)c1 | – | 0.2 µM [rising, full curve, poor fit]
12 | O=C(Nc1cc(C(F)(F)F)cc(C(F)(F)F)c1)c1cccn(Cc2ccccc2Cl)c1=O | 1 µM [rising, full curve] | –
13 | CN[C@@H]1C[C@H](c2ccc(Cl)c(Cl)c2)c2ccccc21 | 39.8 µM [falling, partial curve] | –
14 | N#C/C=C/C#N | 15.8 µM [falling, partial curve, poor fit] | –
15 | O=C1C2(Cl)C3(Cl)C4(Cl)C(Cl)(Cl)C5(Cl)C3(Cl)C1(Cl)C5(Cl)C24Cl (stereo unspecified) | 39.8 µM [falling, partial curve, poor fit] and 39.8 µM [falling, partial curve] | –
16 | C[C@@]12CC[C@H](O)C[C@@H]1CC[C@H]1[C@@H]2C[C@@H](O)[C@]2(C)[C@@H](C3=CC(=O)OC3)CC[C@]12O | 10 µM [falling, partial curve] | –
17 | N#C/C(=C\c1ccc(O)c(O)c1)C(N)=S | 20 µM [falling, partial curve] | –
18 | Cc1ccc(NC(=O)c2cccn(Cc3ccccc3C)c2=O)c(C)c1 | 1 µM [falling, partial curve, poor fit] | –
19 | CCC(C)NC(=O)c1c(N)n(CC2CCCO2)c2nc3ccccc3nc12 (stereo unspecified) | 15.8 µM [falling, partial curve] | –
20 | CC(C)OCCCNC(=O)c1c(N)n(Cc2cccs2)c2nc3ccccc3nc12 | 15.8 µM [falling, partial curve] | –
21 | COc1cccc(-n2c(/C=C/c3ccccc3O)nc3ccccc3c2=O)c1 | 0.631 µM [falling, full curve] | –
22 | Nc1c(C(=O)Nc2ccc(Cl)c(C(F)(F)F)c2)sc2nc3c(cc12)N1CCC3CC1 | 12.6 µM [falling, partial curve] | –
23 | CN(C)CCc1nc2ccccc2c(=O)n1-c1ccccc1 | 12.6 µM [falling, partial curve] | –
24 | CCCCCc1nc2ccccc2c(=O)n1-c1ccc(C)cc1 | 31.6 µM [falling, partial curve] | –
25 | Cc1ccccc1-n1nc(C)c2c1NC(=O)CSC2c1ccc(N(C)C)cc1 (stereo unspecified) | 39.8 µM [falling, single point] | –
26 | Cc1ccc(NC(=O)CN2C(=O)CN=C(c3ccccc3)c3ccccc32)cc1 | 20 µM [falling, partial curve, poor fit] | –
27 | Cc1ccc(CN2C(=O)c3ccccc3Sc3ccc(C(=O)N4CCC5(CC4)OCCO5)cc32)cc1 | 25.1 µM [falling, partial curve] | –
28 | CC(C)(C)c1nc(N2CCN(C(=O)c3ccco3)CC2)c2nnn(Cc3ccccc3Cl)c2n1 | 31.6 µM [falling, partial curve] | –

Filtered by structure: those above containing a CF3 group.
Row | SMILES | AC50 [1] | AC50 [2]
12 | O=C(Nc1cc(C(F)(F)F)cc(C(F)(F)F)c1)c1cccn(Cc2ccccc2Cl)c1=O | 1 µM [rising, full curve] | –
22 | Nc1c(C(=O)Nc2ccc(Cl)c(C(F)(F)F)c2)sc2nc3c(cc12)N1CCC3CC1 | 12.6 µM [falling, partial curve] | –

Following part

Row | SMILES | AC50 [1] | AC50 [2]
29 | O=C1NC(=O)[C@]2(Cc3ccccc3N3CCN(c4ccccc4)CC32)C(=O)N1Cc1ccccc1 (stereo partly specified) | 0.794 µM [falling, full curve] | –
30 | COc1cccc(OC)c1C1=NCC(=O)Nc2c1oc1ccc(Br)cc21 | 0.631 µM [rising, full curve] | 2 µM [rising, full curve]
31 | N[C@@H](Cc1c[nH]c2ccccc12)c1nnc(SCc2ccc(F)cc2)o1 | 25.1 µM [falling, partial curve] | –
32 | O=C(O)c1cc[c]([Hg][Cl])cc1 | – | 39.8 µM [rising, partial curve]
33 | CCCOc1ccc(C2SCC(=O)Nc3c2c(C)nn3-c2cccc(C)c2)cc1OC (stereo unspecified) | 12.6 µM [falling, partial curve] | –
34 | COc1cccc(NC(=O)Cn2cc(C(=O)c3ccccc3)c3ccccc32)c1 | 20 µM [falling, partial curve] | –
35 | CCN(CC)CCSc1nc2ccccc2c(=O)n1-c1ccc(Cl)cc1 | 15.8 µM [falling, partial curve] | –
36 | Cc1cccc(Cn2cccc(C(=O)Nc3ccc4c(c3)OCCO4)c2=O)c1 | 39.8 µM [falling, partial curve] | –
37 | Cc1cccc(-c2nc(CN3C(=O)CN=C(c4ccccc4)c4ccccc43)c(C)o2)c1 | 20 µM [falling, partial curve] | –
38 | COc1ccc(C(c2ccc(OC)cc2)C(Cl)(Cl)Cl)cc1 | 2.51 µM [falling, full curve, poor fit] | –
39 | CC1CCCCN1CC(=O)c1ccc2cc[nH]c2c1 (stereo unspecified) | 10 µM [falling, partial curve] | –
40 | C[C@@H](Cc1cccc(C(F)(F)F)c1)NCCCc1ccccc1 | 31.6 µM [falling, partial curve, poor fit] | –
41 | Cc1ccc(NC(=O)Cn2cc(C(=O)c3ccccc3)c3ccccc32)cc1 | 3.98 µM [falling, partial curve] | –
42 | Cn1c(=O)n(C)c2cc(CNCCc3ccc(F)cc3)ccc21 | 12.6 µM [rising, partial curve] | –
43 | Cc1ccc2nc(NC(=O)c3cccn(Cc4ccc(Cl)cc4)c3=O)sc2c1 | 15.8 µM [falling, partial curve] | –
44 | Cc1nn(-c2ccccc2)c(Cl)c1C1C(C#N)=C(N)Oc2c1c(=O)oc1ccccc21 (stereo unspecified) | 15.8 µM [falling, partial curve] | –
45 | CCn1cnc2c(Nc3cccc(Cl)c3)nc(N[C@@H]3CCCC[C@H]3N)nc21 | 3.16 µM [falling, full curve] | 2.51 µM [falling, full curve]
46 | COc1ccccc1OCCCn1cc(C(=O)c2ccco2)c2ccccc21 | 39.8 µM [falling, single point] | –
47 | COC(=O)c1c(N)n(Cc2ccc(OC)cc2)c2nc3ccccc3nc12 | 31.6 µM [falling, single point] | –
48 | CCCn1c(C)c(C(=O)c2cccc3ccccc23)c2ccccc21 | 31.6 µM [falling, partial curve, poor fit] | –
49 | COc1ccc(C[C@@H]2NC[C@H](O)[C@@H]2OC(C)=O)cc1 | 0.158 µM [falling, full curve] | –
50 | COc1ccc(NC(=O)c2sc3nc4c(cc3c2N)N2CCC4CC2)cc1OC | 39.8 µM [falling, single point] | –
51 | Cc1cccc(CN2CC=C(c3noc(CCC(=O)Nc4ccc(C)c(F)c4)n3)CC2)c1 | 39.8 µM [falling, partial curve] | –
52 | C=C[C@@H]1CN2CC[C@@H]1C[C@H]2[C@H](O)c1ccnc2ccccc12 | 0.316 µM [rising, single point] | –
53 | COC[C@H]1OC(=O)c2coc3c2[C@@]1(C)C1=C(C3=O)[C@H]2CCC(=O)[C@@]2(C)C[C@H]1OC(C)=O | 10 µM [rising, partial curve] | 39.8 µM [rising, partial curve]
54 | CC(C)(C)c1cc(O)ccc1O | 15.8 µM [falling, partial curve] | 15.8 µM [rising, full curve]
55 | N[C@@H](Cc1c[nH]c2ccccc12)c1nnc(SCc2ccc(Cl)cc2)o1 | 15.8 µM [falling, partial curve] | –
